Assay results from PubChem BioAssay AID2685 (National Center for Advancing Translational Sciences (NCATS), 2010).
The whole screen tested about 320,000 compounds, of which about 2,100 (0.66%) were called active. Calls follow the shape of the dose curve; as a rule, active = well fitted inhibition curve with a large enough effect in the signal ratio, with a control signal flat (not every such curve was filed as active); inconclusive = small, poorly fitted or top-dose-only effect, or effect the other way, or a change in a side signal; inactive = flat fitted curve, though single readings scatter; the % refers to the signal ratio. The inconclusive results got no clear call from the source. A potency beside an inconclusive call is a rough fit, not a confirmed value.

Assay: qHTS Assay for Lipid Storage Modulators in Drosophila S3 Cells
Settings: BODIPY lipid droplet fluorescence, 18-24 h, cells fed with added oleic acid; lipid storage change, negative = inhibition: at 46.1 µM (top of the series) unless noted
Summary of the method: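 Drosophila S3 cells got compounds at several concentrations plus oleic acid (400 uM solution). Laser-scanning cytometry with 488 nm excitation read lipid droplets at 500-530 nm and cells at 575-640 nm. Percent activity was relative to 20 uM Triacsin C.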
% is scaled to controls: 0 for no effect and ±100 for the full control effect; potency is read from the fitted curve at half-maximal effect.

Lipid storage change, negative = inhibition, inconclusive:
O=C(CCc1nc2ccccc2c(=O)[nH]1)N1CCCc2ccccc21 42.6%, CCN(CC)S(=O)(=O)c1cc(NC(=O)c2cccc(N3C(=O)CCC3=O)c2)ccc1Cl 34.7% [at 0.0737 µM], CCC(NC(=S)NC1CCCCC1)c1ccccc1 (stereo not given) 2.64%, Cc1ccc2[nH]c(C)c(CCNC(=O)NC3CCCCC3)c2c1 2.91%, CCN1C(=O)[C@H]2[C@@H](c3ccc(C)cc3)N3C(=O)N(c4cccc(F)c4)C(=O)[C@@]3(Cc3ccc(Cl)cc3)[C@H]2C1=O -52.7%, Cc1ccc(Cl)cc1NC(=S)N(CCCN1CCOCC1)Cc1ccccn1 -9.07%, CC(=O)c1ccc(NC(=O)/C=C/c2ccc(C)cc2)cc1 9.44%, Cc1oc(-c2ccccc2F)nc1CN1CCC(C(=O)NC2CCCc3ccccc32)CC1 (stereo not given) 40.9%, Cc1c2cnn(CC(=O)NCCCN3CCCCC3C)c(=O)c2c(C)n1Cc1ccccc1 (stereo not given) -6.37%, Nc1cc(C(=O)O)c(N)c2c1C(=O)c1ccccc1C2=O 27.5%, CC(OC(=O)Cc1coc2ccc3ccccc3c12)C(=O)NC(N)=O (stereo not given) 30.5%, Cc1nc2ccccc2c2oc(C(=O)N3CCC(C)CC3)cc12 -46.8%, COc1cccc(C(=O)N2CCN(S(=O)(=O)Cc3ccccc3)CC2)c1OC -24.4%, COc1ccc(NC(=O)CSc2n[nH]c(C(C)C)n2)c([N+](=O)[O-])c1 24.4%, CCCN(CCC)C(=O)CCS(=O)(=O)c1cccc2nsnc12 6.24%

Potency, inconclusive:
COc1ccc(-n2nc(C(=O)NCC(=O)Nc3cc(OC)c(OC)c(OC)c3)c3ccccc3c2=O)cc1OC 29.1 µM [falling, single point], COc1cc(SC)ccc1C(=O)NC1CCCc2ccccc21 (stereo not given) 29.1 µM [falling, single point], O=C(COC(=O)C1CCN(c2ccc(C(F)(F)F)cn2)CC1)Nc1ncc(Cl)cc1Cl 0.082 µM [activator, partial curve, poor fit], CC(=O)Nc1ccc(/C=N\NC(=O)CNS(=O)(=O)c2ccc([N+](=O)[O-])cc2)cc1 0.411 µM [activator, single point], CCN(c1ccccc1)S(=O)(=O)c1ccc(C(=O)N(C)CCc2ccc(OC)c(OC)c2)cc1 10.3 µM [falling, partial curve, poor fit]
